Source: PubChem BioAssay AID1259291 (Sanger Institute, 2017)

- Assay: 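Find kinase and colorectal-cancer-mutated genes whose loss kills HT29 cells or aids anchor drugs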 (primary screen)
- Cell system: HT29 human colorectal cancer cells
- Reagent: siRNA pool against human genes
- Treatment: anchor drugs added a day after transfection: BYL719 at 1 µM, cetuximab at 5 µg/ml or trametinib at 10 nM, or DMSO vehicle alone
- Measurement: 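Cell viability as a fraction of the non-targeting pool, mean of replicates, robust z-scores from control wells; synergy scores for BYL719 (1 µM), cetuximab (5 µg/ml), trametinib (10 nM)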
- Reading the numbers: robust z-score, knock-down alone and viability, knock-down alone: higher = more viable cells; synergy score with BYL719 and synergy score with cetuximab and synergy score with trametinib: higher = stronger synergistic killing with drug
- Hit rule: 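a knock-down alone scoring under -3 on robust z-score is called essential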
- Calls: active = essential (knock-down alone); inactive = no change alone
This is a random part of 794 deposited reagents. 15 of them (1.9%) count as active. 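Calls rest on knock-down alone; drug synergy scores do not affect them; drugs added a day post-transfection, DMSO vehicle as comparison.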 Unmarked entries are inactive. No viability above 1 is reported: the scale is capped. Not given: the amount of reagent, the time to read-out.

The first 2 entries, ahead of the listing:
| Gene | robust z-score, knock-down alone | viability, knock-down alone (fraction of control) | synergy score with BYL719 | synergy score with cetuximab | synergy score with trametinib |
| --- | --- | --- | --- | --- | --- |
| MKNK1 (MAPK interacting serine/threonine kinase 1) | 0.301 | 0.984 | -0.0116 | 0.114 | 0.0798 |
| MOS (MOS proto-oncogene, serine/threonine kinase) | -0.244 | 0.951 | -0.104 | -0.0495 | 0.0952 |

Main list, from the start:
| Gene | robust z-score, knock-down alone | viability, knock-down alone (fraction of control) | synergy score with BYL719 | synergy score with cetuximab | synergy score with trametinib |
| --- | --- | --- | --- | --- | --- |
| MKNK1 (MAPK interacting serine/threonine kinase 1) | 0.301 | 0.984 | -0.0116 | 0.114 | 0.0798 |
| MOS (MOS proto-oncogene, serine/threonine kinase) | -0.244 | 0.951 | -0.104 | -0.0495 | 0.0952 |
| PI4K2A (phosphatidylinositol 4-kinase type 2 alpha) | -0.472 | 0.936 | -0.211 | 0.0329 | 0.000395 |
| LTK (leukocyte receptor tyrosine kinase) | 0.552 | 1 | -0.104 | 0.00364 | 0.0281 |
| MAP3K1 (mitogen-activated protein kinase kinase kinase 1) | -5.61 (active) | 0.618 | -0.303 | -0.139 | -0.145 |
| PRPS1L1 (phosphoribosyl pyrophosphate synthetase 1 like 1) | 0.552 | 1 | -0.133 | 0 | 0.0671 |
| CDADC1 (cytidine and dCMP deaminase domain containing 1) | 0.552 | 1 | -0.0371 | 0 | -0.0187 |
| PTPN11 (protein tyrosine phosphatase non-receptor type 11) | 0.552 | 1 | -0.0322 | 0 | 0.0118 |
| STK26 (serine/threonine kinase 26) | -0.602 | 0.928 | -0.141 | -0.0566 | -0.115 |
| BMPR1A (bone morphogenetic protein receptor type 1A) | -1.03 | 0.902 | -0.149 | -0.0983 | -0.0667 |
| STK32B (serine/threonine kinase 32B) | 0.44 | 0.993 | -0.0572 | -0.00701 | 0.0526 |
| MAPK1 (mitogen-activated protein kinase 1) | 0.552 | 1 | 0.19 | 0.0642 | 0.0746 |
| BCKDK (branched chain keto acid dehydrogenase kinase) | 0.552 | 1 | -0.129 | 0.0168 | 0.174 |
| MLKL (mixed lineage kinase domain like pseudokinase) | -1.88 | 0.849 | -0.186 | -0.151 | -0.00184 |
| TTBK1 (tau tubulin kinase 1) | -0.192 | 0.954 | -0.138 | 0.105 | -0.21 |
| ETNK1 (ethanolamine kinase 1) | 0.552 | 1 | 0.0435 | 0.0725 | -0.0357 |
| ATM (ATM serine/threonine kinase) | -2.47 | 0.813 | -0.0316 | -0.0727 | -0.0766 |
| TWF2 (twinfilin actin binding protein 2) | 0.552 | 1 | -0.0302 | 0.0336 | 0.0344 |
| AKT2 (AKT serine/threonine kinase 2) | 0.552 | 1 | 0.0141 | 0.0267 | 0.0233 |
| CTNNB1 (catenin beta 1) | -0.105 | 0.959 | 0.121 | 0.246 | -0.0849 |
